According to US8492378B2, “GSK-3β inhibitor” (Takeda Pharmaceutical Company Limited, priority 2006, dated 2013):
Some entries share one result that the patent states for a list of compounds.

By UniProt entry, the sequences of proteins in these tests, tags left out. Chains listed by the source or under a name are the forms on record and can include a tag or linker.
UniProt P49841, other isoform, or with tags, fused parts or gaps: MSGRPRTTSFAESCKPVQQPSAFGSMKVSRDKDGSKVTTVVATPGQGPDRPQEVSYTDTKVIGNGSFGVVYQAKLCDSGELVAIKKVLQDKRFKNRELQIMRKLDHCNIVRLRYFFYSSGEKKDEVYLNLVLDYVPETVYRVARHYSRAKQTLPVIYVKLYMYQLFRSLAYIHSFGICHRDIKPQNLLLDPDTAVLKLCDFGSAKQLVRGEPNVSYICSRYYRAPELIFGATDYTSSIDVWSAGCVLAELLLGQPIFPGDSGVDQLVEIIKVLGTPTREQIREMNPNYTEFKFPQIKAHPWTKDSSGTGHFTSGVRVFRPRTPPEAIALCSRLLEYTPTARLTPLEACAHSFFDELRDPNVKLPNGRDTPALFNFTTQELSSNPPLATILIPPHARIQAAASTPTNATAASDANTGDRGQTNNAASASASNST

Biological target: GSK-3β (Homo sapiens, UniProt P49841)
Assay: GSK-3β inhibitory activity evaluation (Kinase Glo luminescence)
Type: biochemical
Parameters: FLAG (N); made in house; host or cells: Sf-21 insect cells, recombinant baculovirus (pFASTBAC1, BAC-TO-BAC)
Conditions: recombinant human GSK-3β, read-out: IC50 value (GSK-3β inhibition)

COCc1cccc(-c2coc3ccc(-c4nnc(C)o4)cc23)c1 [Example 145, 2-[3-[3-(methoxymethyl)phenyl]-1-benzofuran-5-yl]-5-methyl-1,3,4-oxadiazole]
IC50: ≤ 100 nM

Cc1nnc(-c2ccc3occ(-c4cccc(C(F)(F)F)c4)c3c2)o1 [Example 146, 2-methyl-5-[3-[3-(trifluoromethyl)phenyl]-1-benzofuran-5-yl]-1,3,4-oxadiazole]
IC50: ≤ 100 nM

Cc1nnc(-c2ccc3occ(-c4cccc(OC(F)(F)F)c4)c3c2)o1 [Example 147, 2-methyl-5-[3-[3-(trifluoromethoxy)phenyl]-1-benzofuran-5-yl]-1,3,4-oxadiazole]
IC50: ≤ 100 nM

Cc1nnc(-c2ccc3occ(-c4cccc(Cl)c4)c3c2)o1 [Example 148, 2-[3-(3-chlorophenyl)-1-benzofuran-5-yl]-5-methyl-1,3,4-oxadiazole]
IC50: ≤ 100 nM

Cc1nnc(-c2ccc3occ(-c4cccc(C#N)c4)c3c2)o1 [Example 149, 3-[5-(5-methyl-1,3,4-oxadiazol-2-yl)-1-benzofuran-3-yl]benzonitrile]
IC50: ≤ 100 nM

COc1ccc(-c2coc3ccc(-c4nnc(C)o4)cc23)cc1F [Example 153, 2-[3-(3-fluoro-4-methoxyphenyl)-1-benzofuran-5-yl]-5-methyl-1,3,4-oxadiazole]
IC50: ≤ 100 nM

Cc1nnc(-c2ccc3occ(-c4ccc(C=O)c(F)c4)c3c2)o1 [Example 154, 2-fluoro-4-[5-(5-methyl-1,3,4-oxadiazol-2-yl)-1-benzofuran-3-yl]benzaldehyde]
IC50: ≤ 100 nM

Cc1nnc(-c2ccc3occ(-c4ccc(C(=O)O)c(F)c4)c3c2)o1 [Example 155, 2-fluoro-4-[5-(5-methyl-1,3,4-oxadiazol-2-yl)-1-benzofuran-3-yl]benzoic acid]
IC50: ≤ 100 nM

Cc1nnc(-c2ccc3occ(-c4ccccc4)c3c2)o1 [Example 156, 2-methyl-5-(3-phenyl-1-benzofuran-5-yl)-1,3,4-oxadiazole]
IC50: ≤ 100 nM

Cc1nnc(-c2ccc3occ(-c4ccncc4)c3c2)o1 [Example 159, 4-[5-(5-methyl-1,3,4-oxadiazol-2-yl)-1-benzofuran-3-yl]pyridine]
IC50: ≤ 100 nM

COc1ccc(-c2coc3ccc(-c4nnc(SCc5cccc(F)c5)o4)cc23)cc1 [Example 166, 2-[(3-fluorobenzyl)thio]-5-[3-(4-methoxyphenyl)-1-benzofuran-5-yl]-1,3,4-oxadiazole]
IC50: ≤ 100 nM

COc1ccc(-c2coc3ccc(-c4nnc(SCc5cccc(Cl)c5)o4)cc23)cc1 [Example 167, 2-[(3-chlorobenzyl)thio]-5-[3-(4-methoxyphenyl)-1-benzofuran-5-yl]-1,3,4-oxadiazole]
IC50: ≤ 100 nM

COc1ccc(-c2coc3ccc(-c4nnc(SCc5cccc(C(F)(F)F)c5)o4)cc23)cc1 [Example 168, 2-[3-(4-methoxyphenyl)-1-benzofuran-5-yl]-5-[[3-(trifluoromethyl)benzyl]thio]-1,3,4-oxadiazole]
IC50: ≤ 100 nM

COc1ccc(-c2coc3ccc(-c4nnc(SCc5cccc(C#N)c5)o4)cc23)cc1 [Example 169, 3-[[[5-[3-(4-methoxyphenyl)-1-benzofuran-5-yl]-1,3,4-oxadiazol-2-yl]thio]methyl]benzonitrile]
IC50: ≤ 100 nM

COc1ccc(-c2coc3ccc(-c4nnc(SCc5cccc(C)c5)o4)cc23)cc1 [Example 170, 2-[3-(4-methoxyphenyl)-1-benzofuran-5-yl]-5-[(3-methylbenzyl)thio]-1,3,4-oxadiazole]
IC50: ≤ 100 nM

COc1ccc(-c2coc3ccc(-c4nnc(SCc5cccc(OC)c5)o4)cc23)cc1 [Example 171, 2-[(3-methoxybenzyl)thio]-5-[3-(4-methoxyphenyl)-1-benzofuran-5-yl]-1,3,4-oxadiazole]
IC50: ≤ 100 nM

COc1ccc(CSc2nnc(-c3ccc4occ(-c5ccc(OC)cc5)c4c3)o2)cc1 [Example 172, 2-[(4-methoxybenzyl)thio]-5-[3-(4-methoxyphenyl)-1-benzofuran-5-yl]-1,3,4-oxadiazole]
IC50: ≤ 100 nM

COc1ccc(-c2coc3ccc(-c4nnc(SCc5ccc(OC)c(F)c5)o4)cc23)cc1 [Example 173, 2-[(3-fluoro-4-methoxybenzyl)thio]-5-[3-(4-methoxyphenyl)-1-benzofuran-5-yl]-1,3,4-oxadiazole]
IC50: ≤ 100 nM

COc1ccc(-c2coc3ccc(-c4nnc(SCc5ccc(OC)c(C(F)(F)F)c5)o4)cc23)cc1 [Example 174, 2-[3-(4-methoxyphenyl)-1-benzofuran-5-yl]-5-[[4-methoxy-3-(trifluoromethyl)benzyl]thio]-1,3,4-oxadiazole]
IC50: ≤ 100 nM

COc1ccc(-n2cnc3ccc(-c4nnc(SCc5cccc(C(=O)O)c5)o4)cc32)cc1 [Example 180, 3-[[[5-[1-(4-methoxyphenyl)-1H-benzimidazol-6-yl]-1,3,4-oxadiazol-2-yl]thio]methyl]benzoic acid]
IC50: ≤ 100 nM

COc1ccc(-n2nnc3ccc(-c4nnc(CCc5cccc(F)c5)o4)cc32)cc1 [Example 182, 6-[5-[2-(3-fluorophenyl)ethyl]-1,3,4-oxadiazol-2-yl]-1-(4-methoxyphenyl)-1H-1,2,3-benzotriazole]
IC50: ≤ 100 nM

Cn1cnc2ccc(-c3nnc(CCc4cccc(F)c4)o3)cc21 [Example 188, 6-[5-[2-(3-fluorophenyl)ethyl]-1,3,4-oxadiazol-2-yl]-1-methyl-1H-benzimidazole]
IC50: ≤ 100 nM

C[S+]([O-])c1ccc(-n2cnc3ccc(-c4nnc(S)o4)cc32)cc1 (stereo not shown) [Example 190, 5-[1-[4-(methylsulfinyl)phenyl]-1H-benzimidazol-6-yl]-1,3,4-oxadiazole-2-thiol]
IC50: ≤ 100 nM

COc1ccc(CSc2nnc(-c3ccc4ncccc4c3)o2)cc1C(F)(F)F [Example 204, 6-[5-[[4-methoxy-3-(trifluoromethyl)benzyl]thio]-1,3,4-oxadiazol-2-yl]quinoline]
IC50: ≤ 100 nM

O=C(NCc1ccccc1)Nc1cc(-c2nnc(SCc3ccc(Cl)cc3)o2)ccn1 [Example 210, N-benzyl-N′-[4-[5-[(4-chlorobenzyl)thio]-1,3,4-oxadiazol-2-yl]-2-pyridyl]urea]
IC50: ≤ 100 nM

CC(C)(C)OC(=O)Nc1cc(-c2nnc(SCc3cccc(F)c3)o2)ccn1 [Example 211, tert-butyl[4-[5-[(3-fluorobenzyl)thio]-1,3,4-oxadiazol-2-yl]-2-pyridyl]carbamate]
IC50: ≤ 100 nM

Nc1cc(-c2nnc(SCc3cccc(F)c3)o2)ccn1 [Example 212, 4-[5-[(3-fluorobenzyl)thio]-1,3,4-oxadiazol-2-yl]pyridin-2-amine]
IC50: ≤ 100 nM

COc1ccc(CSc2nnc(-c3ccnc(NC(=O)CCc4ccccc4)c3)o2)cc1C(F)(F)F [Example 216, N-[4-[5-[[4-methoxy-3-(trifluoromethyl)benzyl]thio]-1,3,4-oxadiazol-2-yl]-2-pyridyl]-3-phenylpropionamide]
IC50: ≤ 100 nM

COc1ccc(CSc2nnc(-c3ccnc(NC(=O)CCc4ccccc4)c3)o2)cc1C#N [Example 217, N-[4-[5-[(3-cyano-4-methoxybenzyl)thio]-1,3,4-oxadiazol-2-yl]-2-pyridyl]-3-phenylpropionamide]
IC50: ≤ 100 nM

O=C(CCc1ccccc1)Nc1cc(-c2nnc(CCc3cccc(F)c3)o2)ccn1 [Example 223, N-[4-[5-[2-(3-fluorophenyl)ethyl]-1,3,4-oxadiazol-2-yl]-2-pyridyl]-3-phenylpropionamide]
IC50: ≤ 100 nM

O=C(CCc1ccccc1)Nc1cc(-c2nnc(CCc3cccc(C(F)(F)F)c3)o2)ccn1 [Example 229, 3-phenyl-N-[4-[5-[2-[3-(trifluoromethyl)phenyl]ethyl]-1,3,4-oxadiazol-2-yl]-2-pyridyl]propionamide]
IC50: ≤ 100 nM

FC(F)(F)c1cccc(CSc2nnc(-c3ccnc4[nH]ccc34)o2)c1 [Example 230, 4-[5-[[3-(trifluoromethyl)benzyl]thio]-1,3,4-oxadiazol-2-yl]-1H-pyrrolo[2,3-b]pyridine]
IC50: ≤ 100 nM

Fc1cccc(CSc2nnc(-c3ccnc4[nH]ccc34)o2)c1 [Example 231, 4-[5-[(3-fluorobenzyl)thio]-1,3,4-oxadiazol-2-yl]-1H-pyrrolo[2,3-b]pyridine]
IC50: ≤ 100 nM

FC(F)(F)c1cccc(CCc2nnc(-c3ccnc4[nH]ccc34)o2)c1 [Example 233, 4-[5-[2-[3-(trifluoromethyl)phenyl]ethyl]-1,3,4-oxadiazol-2-yl]-1H-pyrrolo[2,3-b]pyridine]
IC50: ≤ 100 nM

Fc1cccc(CSc2nnc(-c3ccnc4[nH]c(CCc5ccccc5)cc34)o2)c1 [Example 237, 4-[5-[(3-fluorobenzyl)thio]-1,3,4-oxadiazol-2-yl]-2-(2-phenylethyl)-1H-pyrrolo[2,3-b]pyridine]
IC50: ≤ 100 nM

Fc1cccc(CSc2nnc(-c3ccnc(Nc4ccccn4)c3)o2)c1 [Example 246, 4-[5-[(3-fluorobenzyl)thio]-1,3,4-oxadiazol-2-yl]-N-(2-pyridyl)pyridin-2-amine]
IC50: ≤ 100 nM

CSc1ccc(CSc2nnc(-c3ccc4ncsc4c3)o2)cc1C(F)(F)F [Example 249, 6-[5-[[4-(methylthio)-3-(trifluoromethyl)benzyl]thio]-1,3,4-oxadiazol-2-yl]benzothiazole]
IC50: ≤ 100 nM

C[S+]([O-])c1ccc(CSc2nnc(-c3ccc4ncsc4c3)o2)cc1C(F)(F)F (stereo not shown) [Example 250, 6-[5-[[4-(methylsulfinyl)-3-(trifluoromethyl)benzyl]thio]-1,3,4-oxadiazol-2-yl]benzothiazole]
IC50: ≤ 100 nM

CSc1ccc(CSc2nnc(-c3ccc4[nH]ncc4c3)o2)cc1C(F)(F)F [Example 251, 5-[5-[[4-(methylthio)-3-(trifluoromethyl)benzyl]thio]-1,3,4-oxadiazol-2-yl]-1H-indazole]
IC50: ≤ 100 nM

C[S+]([O-])c1ccc(CSc2nnc(-c3ccc4[nH]ncc4c3)o2)cc1C(F)(F)F (stereo not shown) [Example 252, 5-[5-[[4-(methylsulfinyl)-3-(trifluoromethyl)benzyl]thio]-1,3,4-oxadiazol-2-yl]-1H-indazole]
IC50: ≤ 100 nM
